PubChem BioAssay AID743454 | Peter MacCallum Cancer Centre, 2014
Purpose: 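Knock-downs lowering viability or raising caspase 3/7 activity in vorinostat-treated resistant cells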 (primary screen). Cell system: human HCT116-VR colon cancer cells, selected for vorinostat resistance. Reagent: siRNA pool against human genes, 40 nM siRNA pool. Timing: vorinostat for 24 h, read-out about 72 h after transfection. Treatment: vorinostat at 2.5 µM final. Read-out: 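Two measures, CellTiter-Fluor viability and luminescent caspase 3/7 activity, each as fold change against same-plate mock wells, mean of duplicates, then screen-wide robust z-score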. Reading the numbers: viability robust z-score: higher = more viable cells than screen typical; caspase robust z-score: higher = more caspase 3/7 activity than screen typical. Active means: 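Hits are knock-downs in viability class RV1/RV2 or caspase class CA1/CA2, excluding ones that killed cells in the no-drug cell-count arm; hits then retested with single siRNAs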.
The whole screen tested about 18,000 reagents; below is a random part of them. 450 of them (2.5%) were called active. 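Single biological run; no consistent viability z cut-off exists, so the class columns, not z-scores, define the calls.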

gene symbol	viability hit class	caspase hit class	viability robust z-score	caspase robust z-score	call
CDCA5 (cell division cycle associated 5)	no change	no change	-3.83	0.01	inactive
DNAI2 (dynein axonemal intermediate chain 2)	no change	CA2 (caspase activation)	-2.23	5.13	active
DESI1 (desumoylating isopeptidase 1)	no change	no change	0.08	1.86	inactive
OGDH (oxoglutarate dehydrogenase)	RV2 (reduced viability)	no change	-3.38	-0.72	active
CIP2A (cellular inhibitor of PP2A)	no change	no change	-0.15	-0.06	inactive
CCNT2 (cyclin T2)	no change	no change	-0.3	0.7	inactive
PUS10 (pseudouridine synthase 10)	no change	no change	0.85	-0.76	inactive
PHF12 (PHD finger protein 12)	no change	no change	-0.63	-0.55	inactive
SLC25A45	no change	no change	-0.57	-0.24	inactive
SLC11A1	no change	no change	0.14	0.18	inactive
BPNT1 (3'(2'), 5'-bisphosphate nucleotidase 1)	no change	no change	0.62	0.68	inactive
SPATA16 (spermatogenesis associated 16)	no change	no change	0.22	3.08	inactive
PICALM (phosphatidylinositol binding clathrin assembly protein)	no change	no change	-0.45	-0.74	inactive
BTG3 (BTG anti-proliferation factor 3)	no change	no change	0.28	1.36	inactive
RTP2 (receptor transporter protein 2)	no change	no change	-0.52	2.13	inactive
CAMKMT (calmodulin-lysine N-methyltransferase)	no change	no change	0.18	-0.82	inactive
PLSCR2 (phospholipid scramblase 2)	no change	no change	0.76	0.23	inactive
HES3 (hes family bHLH transcription factor 3)	no change	no change	-0.2	1.51	inactive
A4GALT (alpha 1,4-galactosyltransferase (P1PK blood group))	no change	no change	0.16	-0.68	inactive
APBB2 (amyloid beta precursor protein binding family B member 2)	no change	no change	-0.26	1.9	inactive
SLC25A42	no change	no change	0.8	-0.8	inactive
EEF1D (eukaryotic translation elongation factor 1 delta)	no change	no change	-0.1	1.13	inactive
TMOD1 (tropomodulin 1)	no change	no change	-0.27	2.36	inactive
NDUFV2 (NADH:ubiquinone oxidoreductase core subunit V2)	no change	no change	-1.91	-0.38	inactive
EDRF1 (erythroid differentiation regulatory factor 1)	no change	no change	0.9	0.01	inactive
MAS1L (MAS1 proto-oncogene like, G protein-coupled receptor)	no change	no change	0.55	-0.44	inactive
RSRP1 (arginine and serine rich protein 1)	no change	no change	1.52	2.02	inactive
TMSB4XP8 (TMSB4X pseudogene 8)	no change	no change	-0.32	-0.66	inactive
ALDOC (aldolase, fructose-bisphosphate C)	no change	no change	0.33	-1.24	inactive
AGL (amylo-alpha-1,6-glucosidase and 4-alpha-glucanotransferase)	no change	no change	-0.34	-0.53	inactive
SRRM4 (serine/arginine repetitive matrix 4)	no change	no change	0.37	2.7	inactive
DGKH (diacylglycerol kinase eta)	no change	no change	-0.76	2.05	inactive
GMPR (guanosine monophosphate reductase)	no change	no change	2.06	0.3	inactive
MYEF2 (myelin expression factor 2)	no change	no change	-0.21	-0.56	inactive
FCN1 (ficolin 1)	no change	no change	1.08	-0.7	inactive
MXI1 (MAX interactor 1, dimerization protein)	no change	no change	1.08	0.03	inactive
SMDT1 (single-pass membrane protein with aspartate rich tail 1)	no change	no change	1.27	2.71	inactive
DSN1 (DSN1 component of MIS12 kinetochore complex)	no change	no change	0.77	0.47	inactive
OR4K15 (olfactory receptor family 4 subfamily K member 15)	no change	no change	0.14	-0.66	inactive
GSDMD (gasdermin D)	no change	no change	0.1	-0.38	inactive
KAT14 (lysine acetyltransferase 14)	no change	no change	0.3	2.4	inactive
GCNT4 (glucosaminyl (N-acetyl) transferase 4)	no change	no change	-0.26	-0.99	inactive
KLHL38 (kelch like family member 38)	no change	no change	0.97	-0.08	inactive
LHFPL1 (LHFPL tetraspan subfamily member 1)	no change	no change	0.48	-0.72	inactive
HSPA4 (heat shock protein family A (Hsp70) member 4)	no change	no change	0.94	0.12	inactive
OR4C3 (olfactory receptor family 4 subfamily C member 3)	no change	no change	0.45	-0.07	inactive
ETV5 (ETS variant transcription factor 5)	no change	no change	-0.88	1.75	inactive
FAM120AOS (family with sequence similarity 120 member A opposite strand)	no change	no change	1.84	1.67	inactive

10 entries from above, sorted by “viability robust z-score”, ascending.
gene symbol	viability hit class	caspase hit class	viability robust z-score	caspase robust z-score	call
DGKH (diacylglycerol kinase eta)	no change	no change	-0.76	2.05	inactive
AGL (amylo-alpha-1,6-glucosidase and 4-alpha-glucanotransferase)	no change	no change	-0.34	-0.53	inactive
TMSB4XP8 (TMSB4X pseudogene 8)	no change	no change	-0.32	-0.66	inactive
MYEF2 (myelin expression factor 2)	no change	no change	-0.21	-0.56	inactive
ALDOC (aldolase, fructose-bisphosphate C)	no change	no change	0.33	-1.24	inactive
SRRM4 (serine/arginine repetitive matrix 4)	no change	no change	0.37	2.7	inactive
MAS1L (MAS1 proto-oncogene like, G protein-coupled receptor)	no change	no change	0.55	-0.44	inactive
FCN1 (ficolin 1)	no change	no change	1.08	-0.7	inactive
RSRP1 (arginine and serine rich protein 1)	no change	no change	1.52	2.02	inactive
GMPR (guanosine monophosphate reductase)	no change	no change	2.06	0.3	inactive

The list goes on:
gene symbol	viability hit class	caspase hit class	viability robust z-score	caspase robust z-score	call
ICMT (isoprenylcysteine carboxyl methyltransferase)	no change	no change	-0.92	0.23	inactive
TMEM245 (transmembrane protein 245)	no change	no change	0.76	-0.38	inactive
PITPNC1 (phosphatidylinositol transfer protein cytoplasmic 1)	no change	no change	-1.15	-0.9	inactive
FOXN3 (forkhead box N3)	no change	no change	0.4	-0.19	inactive
HTR2B (5-hydroxytryptamine receptor 2B)	no change	no change	0.83	-0.19	inactive
H2AC6 (H2A clustered histone 6)	no change	no change	0.02	0.97	inactive
IL11RA (interleukin 11 receptor subunit alpha)	no change	no change	1.07	-0.55	inactive
RASGRF1 (Ras protein specific guanine nucleotide releasing factor 1)	no change	no change	-0.36	-0.98	inactive
STAG3L3 (STAG3 cohesin complex component like 3 (pseudogene))	no change	no change	-0.5	-0.76	inactive
USP33 (ubiquitin specific peptidase 33)	no change	no change	-1.14	0.22	inactive
SSC4D	no change	no change	-0.2	2.57	inactive
OTOR (otoraplin)	no change	no change	0.91	0.32	inactive
DHRS1 (dehydrogenase/reductase 1)	no change	no change	1.45	-0.8	inactive
SARM1 (sterile alpha and TIR motif containing 1)	no change	no change	-2.61	-0.22	inactive
FBXO9 (F-box protein 9)	no change	no change	-0.89	-1.25	inactive
LRRC8A (leucine rich repeat containing 8 VRAC subunit A)	no change	no change	-0.12	-0.48	inactive
RPS4Y2 (ribosomal protein S4 Y-linked 2)	no change	no change	1.15	2.21	inactive
INIP (INTS3 and NABP interacting protein)	no change	no change	0.52	0.64	inactive
ZNF773 (zinc finger protein 773)	no change	no change	1.72	0.88	inactive
OR8J3 (olfactory receptor family 8 subfamily J member 3)	no change	no change	-0.32	-0.67	inactive
PTPN4 (protein tyrosine phosphatase non-receptor type 4)	no change	no change	0.32	0.55	inactive
CCNL2 (cyclin L2)	no change	no change	0.66	-0.64	inactive
OGA (O-GlcNAcase)	no change	no change	1.08	0.26	inactive
ZFP36L1 (ZFP36 like 1 zinc finger CCCH-type)	no change	no change	-0.92	1.12	inactive
METTL9 (methyltransferase 9, His-X-His N1(pi)-histidine)	no change	no change	1.24	1.06	inactive
